Drawing on patent publication US11332395B2, “Sanitary food washing stage in food production” (CHEMTREAT, INC., priority 2019, dated 2022), this text covers ORP for one molecule.

The conditions of series [1]: spray table water, ORP at time 0 162 mV. On the procedure: Water samples were taken from the spray table of a sugar beet factory. […] The hydrogen peroxide concentration was measured periodically over a 60 minute period. The oxidation-reduction potential (ORP) was measured over the same period.
The conditions of series [2]: flume return water, ORP at time 0 170 mV. The protocol:
Water samples were taken from the flume return (clarifier inlet) in a sugar beet factory. […] The hydrogen peroxide concentration was measured periodically over a 60 minute period. The oxidation-reduction potential (ORP) was measured over the same period.

The mark [3] stands for this setting: initial H2O2 dose 60 ppm, time 5 min.
Where [4] appears, read: initial H2O2 dose 60 ppm, time 30 min.
[5] abbreviates: initial H2O2 dose 60 ppm, time 45 min.
Where [6] appears, read: initial H2O2 dose 120 ppm, time 5 min.
Where [7] appears, read: initial H2O2 dose 120 ppm, time 30 min.
Where [8] appears, read: initial H2O2 dose 120 ppm, time 45 min.
[9] abbreviates: initial H2O2 dose 180 ppm, time 5 min.
Setting [10] is: initial H2O2 dose 180 ppm, time 30 min.
[11] abbreviates: initial H2O2 dose 180 ppm, time 45 min.

Structures are written as SMILES. Where two headings read alike, the source gives them in different places.

Take `OO` [H2O2, hydrogen peroxide]: the ORP in series [1] (setting [3]) is listed as 216 mV; in series [1] (setting [4]) it was 220 mV; in series [1] (setting [5]), 231 mV; in series [1] (setting [6]), 242 mV; in series [1] (setting [7]), 215 mV; in series [1] (setting [8]) it was 226 mV. The ORP came out at 256 mV in series [1] (setting [9]); 217 mV in series [1] (setting [10]); 222 mV in series [1] (setting [11]); 214 mV in series [2] (setting [3]); 211 mV in series [2] (setting [4]); 215 mV in series [2] (setting [5]). For the same molecule, the ORP in series [2] (setting [6]) was 230 mV; in series [2] (setting [7]) it was 220 mV; in series [2] (setting [8]), 222 mV; in series [2] (setting [9]), 240 mV; in series [2] (setting [10]), 225 mV; in series [2] (setting [11]) it was 227 mV.
